Reference: the supplement of paper PMC10849652
The other results are listed elsewhere or left out.

Chains of the proteins cited; added tags and fusions are not shown. Lines headed by an entry give the natural chain unless they say otherwise; changes in a name come on top.
UniProt Q8N806: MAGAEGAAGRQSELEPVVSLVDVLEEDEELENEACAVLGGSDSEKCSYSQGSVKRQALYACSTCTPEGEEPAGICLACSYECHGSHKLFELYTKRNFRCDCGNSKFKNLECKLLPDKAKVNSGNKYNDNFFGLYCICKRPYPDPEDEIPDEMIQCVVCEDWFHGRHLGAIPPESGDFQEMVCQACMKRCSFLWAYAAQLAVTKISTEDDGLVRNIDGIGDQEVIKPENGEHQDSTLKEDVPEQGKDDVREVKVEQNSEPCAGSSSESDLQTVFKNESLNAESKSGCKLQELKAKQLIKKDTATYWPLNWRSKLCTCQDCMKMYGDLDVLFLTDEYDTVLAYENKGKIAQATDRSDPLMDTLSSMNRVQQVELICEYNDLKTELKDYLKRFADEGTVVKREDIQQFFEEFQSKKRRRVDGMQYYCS
UniProt Q8TAA9: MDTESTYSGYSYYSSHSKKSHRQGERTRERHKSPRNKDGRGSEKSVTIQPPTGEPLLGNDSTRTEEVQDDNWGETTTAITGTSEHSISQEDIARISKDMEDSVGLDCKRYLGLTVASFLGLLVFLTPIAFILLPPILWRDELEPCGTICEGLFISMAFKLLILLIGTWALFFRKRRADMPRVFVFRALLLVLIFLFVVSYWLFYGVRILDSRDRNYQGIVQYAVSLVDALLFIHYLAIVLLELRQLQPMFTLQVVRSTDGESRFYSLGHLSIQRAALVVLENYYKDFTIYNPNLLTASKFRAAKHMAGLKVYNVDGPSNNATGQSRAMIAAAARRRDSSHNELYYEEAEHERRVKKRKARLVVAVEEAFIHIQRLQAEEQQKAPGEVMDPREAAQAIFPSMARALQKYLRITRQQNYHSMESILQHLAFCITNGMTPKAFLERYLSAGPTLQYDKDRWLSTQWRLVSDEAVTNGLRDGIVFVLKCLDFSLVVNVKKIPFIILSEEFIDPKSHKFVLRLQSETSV
UniProt O95155, whole entry, looked up: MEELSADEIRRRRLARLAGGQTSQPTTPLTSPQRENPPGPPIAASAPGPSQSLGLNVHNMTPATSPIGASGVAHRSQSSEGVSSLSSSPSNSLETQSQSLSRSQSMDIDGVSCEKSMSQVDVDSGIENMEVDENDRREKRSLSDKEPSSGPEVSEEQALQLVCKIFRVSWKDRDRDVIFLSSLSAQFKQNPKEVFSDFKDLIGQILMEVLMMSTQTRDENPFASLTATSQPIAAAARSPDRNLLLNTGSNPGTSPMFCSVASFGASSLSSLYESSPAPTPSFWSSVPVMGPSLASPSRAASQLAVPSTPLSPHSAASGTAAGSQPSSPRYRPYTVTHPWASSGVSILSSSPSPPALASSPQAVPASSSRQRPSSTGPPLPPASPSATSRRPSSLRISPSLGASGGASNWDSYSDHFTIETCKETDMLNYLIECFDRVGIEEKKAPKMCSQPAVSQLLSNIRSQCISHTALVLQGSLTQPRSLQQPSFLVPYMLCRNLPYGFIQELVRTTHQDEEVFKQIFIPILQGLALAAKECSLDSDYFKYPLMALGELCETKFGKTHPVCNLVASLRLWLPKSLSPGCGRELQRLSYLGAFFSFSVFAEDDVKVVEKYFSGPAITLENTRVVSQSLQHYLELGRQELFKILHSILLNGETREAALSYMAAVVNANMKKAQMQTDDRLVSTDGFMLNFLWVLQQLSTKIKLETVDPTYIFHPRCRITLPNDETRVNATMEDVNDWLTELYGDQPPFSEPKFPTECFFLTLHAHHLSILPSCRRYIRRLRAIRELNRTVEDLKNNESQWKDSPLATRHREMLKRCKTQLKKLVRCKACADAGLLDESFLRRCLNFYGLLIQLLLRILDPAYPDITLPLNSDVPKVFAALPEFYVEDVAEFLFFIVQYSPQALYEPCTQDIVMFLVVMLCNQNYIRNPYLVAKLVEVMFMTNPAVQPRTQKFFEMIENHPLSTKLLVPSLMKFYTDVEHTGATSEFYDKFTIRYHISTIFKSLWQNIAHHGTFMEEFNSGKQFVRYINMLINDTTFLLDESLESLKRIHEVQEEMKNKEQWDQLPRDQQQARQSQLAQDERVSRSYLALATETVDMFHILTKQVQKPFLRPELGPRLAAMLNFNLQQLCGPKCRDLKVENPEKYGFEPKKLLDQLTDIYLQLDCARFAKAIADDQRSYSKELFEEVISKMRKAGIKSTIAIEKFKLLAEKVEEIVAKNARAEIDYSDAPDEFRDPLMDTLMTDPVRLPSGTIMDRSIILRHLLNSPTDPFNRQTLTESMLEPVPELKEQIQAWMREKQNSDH
UniProt Q9Y3C8: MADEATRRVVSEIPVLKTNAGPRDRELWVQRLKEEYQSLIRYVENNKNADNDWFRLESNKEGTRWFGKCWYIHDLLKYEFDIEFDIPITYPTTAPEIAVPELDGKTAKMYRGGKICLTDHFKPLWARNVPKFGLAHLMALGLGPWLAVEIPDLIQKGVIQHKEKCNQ
UniProt Q70CQ2: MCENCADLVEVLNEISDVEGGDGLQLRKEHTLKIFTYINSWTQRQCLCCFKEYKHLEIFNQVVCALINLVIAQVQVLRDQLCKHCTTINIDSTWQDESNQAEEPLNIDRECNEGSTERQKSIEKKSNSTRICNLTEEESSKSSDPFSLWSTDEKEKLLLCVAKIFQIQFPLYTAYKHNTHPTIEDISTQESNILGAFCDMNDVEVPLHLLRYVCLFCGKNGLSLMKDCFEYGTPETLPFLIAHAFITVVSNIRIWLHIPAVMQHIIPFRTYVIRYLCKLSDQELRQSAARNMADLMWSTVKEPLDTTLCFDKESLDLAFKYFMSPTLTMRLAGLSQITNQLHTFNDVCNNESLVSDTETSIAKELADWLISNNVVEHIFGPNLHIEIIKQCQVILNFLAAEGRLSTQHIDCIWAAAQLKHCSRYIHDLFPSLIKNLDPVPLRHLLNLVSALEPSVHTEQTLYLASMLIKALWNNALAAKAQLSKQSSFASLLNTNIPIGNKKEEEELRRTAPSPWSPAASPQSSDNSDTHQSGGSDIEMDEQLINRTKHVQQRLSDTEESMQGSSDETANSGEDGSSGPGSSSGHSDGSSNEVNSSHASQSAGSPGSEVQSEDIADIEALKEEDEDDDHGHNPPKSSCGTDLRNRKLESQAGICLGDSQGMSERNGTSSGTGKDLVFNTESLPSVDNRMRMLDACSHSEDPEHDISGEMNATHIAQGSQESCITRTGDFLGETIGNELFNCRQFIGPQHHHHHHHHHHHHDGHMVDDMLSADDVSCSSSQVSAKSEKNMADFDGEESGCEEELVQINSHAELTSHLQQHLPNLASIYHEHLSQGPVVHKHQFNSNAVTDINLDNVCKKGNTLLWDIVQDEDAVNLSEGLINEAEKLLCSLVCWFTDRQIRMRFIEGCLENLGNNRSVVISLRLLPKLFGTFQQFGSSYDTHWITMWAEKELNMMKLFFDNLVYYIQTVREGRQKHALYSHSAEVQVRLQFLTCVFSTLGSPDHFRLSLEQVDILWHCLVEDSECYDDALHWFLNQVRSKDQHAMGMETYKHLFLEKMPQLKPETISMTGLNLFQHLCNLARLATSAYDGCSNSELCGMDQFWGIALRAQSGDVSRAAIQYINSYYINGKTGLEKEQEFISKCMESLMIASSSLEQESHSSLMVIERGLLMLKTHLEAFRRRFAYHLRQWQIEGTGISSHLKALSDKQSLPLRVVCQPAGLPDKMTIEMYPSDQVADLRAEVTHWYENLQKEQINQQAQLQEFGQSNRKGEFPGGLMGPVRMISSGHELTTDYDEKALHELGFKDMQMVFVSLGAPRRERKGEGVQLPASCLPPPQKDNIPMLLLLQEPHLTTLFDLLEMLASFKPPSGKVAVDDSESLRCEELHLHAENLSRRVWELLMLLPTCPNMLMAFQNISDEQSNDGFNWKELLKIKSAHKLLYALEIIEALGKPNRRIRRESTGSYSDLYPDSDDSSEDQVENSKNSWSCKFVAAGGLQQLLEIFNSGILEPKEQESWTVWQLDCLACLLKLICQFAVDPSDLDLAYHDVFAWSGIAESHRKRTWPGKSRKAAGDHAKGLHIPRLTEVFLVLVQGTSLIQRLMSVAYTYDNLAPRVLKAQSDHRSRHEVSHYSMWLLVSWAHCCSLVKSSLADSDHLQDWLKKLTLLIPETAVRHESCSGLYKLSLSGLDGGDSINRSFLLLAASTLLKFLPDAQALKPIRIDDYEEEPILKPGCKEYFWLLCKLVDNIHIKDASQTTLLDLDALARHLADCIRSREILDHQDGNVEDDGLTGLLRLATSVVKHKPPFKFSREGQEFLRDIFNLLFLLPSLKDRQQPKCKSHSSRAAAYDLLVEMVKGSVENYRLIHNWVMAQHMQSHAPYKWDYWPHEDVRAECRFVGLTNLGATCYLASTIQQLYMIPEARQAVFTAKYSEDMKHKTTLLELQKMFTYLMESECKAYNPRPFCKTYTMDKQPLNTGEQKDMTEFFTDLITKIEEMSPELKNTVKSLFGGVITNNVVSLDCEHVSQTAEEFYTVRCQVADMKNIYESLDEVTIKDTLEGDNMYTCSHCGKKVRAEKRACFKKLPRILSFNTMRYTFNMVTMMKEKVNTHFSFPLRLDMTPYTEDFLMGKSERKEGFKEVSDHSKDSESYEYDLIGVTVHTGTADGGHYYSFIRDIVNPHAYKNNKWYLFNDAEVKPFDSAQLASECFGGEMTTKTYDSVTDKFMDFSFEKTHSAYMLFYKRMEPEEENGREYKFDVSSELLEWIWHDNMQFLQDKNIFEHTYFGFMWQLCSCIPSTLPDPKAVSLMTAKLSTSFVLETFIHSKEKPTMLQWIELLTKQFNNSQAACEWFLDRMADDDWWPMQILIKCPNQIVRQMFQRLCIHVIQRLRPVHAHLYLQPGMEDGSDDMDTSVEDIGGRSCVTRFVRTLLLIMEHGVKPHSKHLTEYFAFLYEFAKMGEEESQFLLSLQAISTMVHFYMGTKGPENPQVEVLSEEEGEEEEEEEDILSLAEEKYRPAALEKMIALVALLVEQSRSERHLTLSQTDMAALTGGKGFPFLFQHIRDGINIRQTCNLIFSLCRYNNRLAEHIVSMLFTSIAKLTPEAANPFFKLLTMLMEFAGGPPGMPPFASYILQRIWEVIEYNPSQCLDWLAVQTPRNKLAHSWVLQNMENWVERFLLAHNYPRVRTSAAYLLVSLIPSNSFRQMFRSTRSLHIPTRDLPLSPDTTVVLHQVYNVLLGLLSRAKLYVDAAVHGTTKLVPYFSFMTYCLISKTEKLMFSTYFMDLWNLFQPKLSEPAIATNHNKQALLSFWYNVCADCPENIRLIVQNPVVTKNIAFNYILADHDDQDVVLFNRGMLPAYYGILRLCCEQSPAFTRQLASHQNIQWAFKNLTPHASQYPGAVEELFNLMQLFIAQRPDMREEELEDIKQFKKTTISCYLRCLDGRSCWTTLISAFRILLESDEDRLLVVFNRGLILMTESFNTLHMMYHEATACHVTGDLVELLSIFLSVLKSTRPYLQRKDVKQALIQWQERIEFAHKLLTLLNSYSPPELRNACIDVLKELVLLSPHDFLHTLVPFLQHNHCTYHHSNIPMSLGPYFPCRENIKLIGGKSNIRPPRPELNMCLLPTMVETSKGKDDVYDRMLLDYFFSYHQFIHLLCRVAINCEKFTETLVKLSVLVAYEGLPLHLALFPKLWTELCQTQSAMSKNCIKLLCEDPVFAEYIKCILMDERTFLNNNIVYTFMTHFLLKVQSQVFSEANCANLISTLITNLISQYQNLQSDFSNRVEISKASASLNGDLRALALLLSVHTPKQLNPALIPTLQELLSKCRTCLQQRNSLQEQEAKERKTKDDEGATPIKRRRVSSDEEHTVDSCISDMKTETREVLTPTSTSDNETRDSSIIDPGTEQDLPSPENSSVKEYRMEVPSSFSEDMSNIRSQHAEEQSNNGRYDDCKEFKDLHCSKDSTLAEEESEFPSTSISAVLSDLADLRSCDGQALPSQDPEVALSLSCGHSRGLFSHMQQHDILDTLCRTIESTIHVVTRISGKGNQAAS
UniProt Q9UMX0, whole entry, looked up: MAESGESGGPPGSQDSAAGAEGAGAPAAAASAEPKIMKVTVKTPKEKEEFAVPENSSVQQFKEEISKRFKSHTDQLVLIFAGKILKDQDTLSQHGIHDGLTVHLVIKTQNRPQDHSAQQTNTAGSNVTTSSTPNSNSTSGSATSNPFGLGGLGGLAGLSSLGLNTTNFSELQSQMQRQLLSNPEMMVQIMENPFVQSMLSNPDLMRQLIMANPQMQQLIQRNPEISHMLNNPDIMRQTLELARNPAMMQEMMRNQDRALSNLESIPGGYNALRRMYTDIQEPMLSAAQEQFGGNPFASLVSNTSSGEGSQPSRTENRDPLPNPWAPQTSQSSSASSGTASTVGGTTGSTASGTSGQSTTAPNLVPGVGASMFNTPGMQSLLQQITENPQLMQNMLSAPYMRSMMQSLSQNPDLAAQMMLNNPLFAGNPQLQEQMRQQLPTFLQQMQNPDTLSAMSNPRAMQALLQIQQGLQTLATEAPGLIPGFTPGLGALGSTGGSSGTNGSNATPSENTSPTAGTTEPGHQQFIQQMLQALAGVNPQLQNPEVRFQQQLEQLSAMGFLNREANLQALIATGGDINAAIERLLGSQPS

Key:
Experiment in all cases: log2 fold change, soluble protein after heating vs DMSO (PISA); higher = thermal stabilisation; K562 cells, 10 uM, 30 min; active = over 0.2 and 3.5 SD of the protein, either way, in both replicates (recomputed)
[1] = compound: Cc1ccc(NC(=O)c2ccc(CN3CC[C@H](N(C)C)C3)c(C(F)(F)F)c2)cc1Nc1nccc(-c2cncnc2)n1 [bafetinib]
Outline: (§1)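 K562 cells at 2×10^6 cells/mL were given 10 μM compound for 30 min. Aliquots then went through 3 min of heating across 48°C-58°C, were pooled, and were extracted in PBS with 0.5% NP-40 at 4°C, and the supernatant after 21,000xg for 90 min was quantified by TMTpro 16plex LC-MS/MS with channel sums equalised. Thermal stability relative to control samples, from duplicates, is given as log2 fold change.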

[2] = compound: Cc1cccc(CC(=O)N2CCc3c2ccc(-c2cn(C)c4ncnc(N)c24)c3F)n1
Outline: as §1

[3] = compound: Cc1cn(-c2cc(NC(=O)c3ccc(C)c(Nc4nccc(-c5cccnc5)n4)c3)cc(C(F)(F)F)c2)cn1 [nilotinib]
Outline: as §1

[4] = compound: Cc1nc(Nc2n[nH]c3c2CN(C(=O)N[C@H](CN(C)C)c2ccccc2)C3(C)C)c2sccc2n1
Outline: as §1

[5] = compound: Cc1nc(Nc2ncc(C(=O)Nc3c(C)cccc3Cl)s2)cc(N2CCN(CCO)CC2)n1 [dasatinib]
Outline: as §1

[6] = compound: Cc1ncc(-c2ccnc(Nc3ccc(S(C)(=O)=O)cc3)n2)n1C(C)C
Outline: as §1

[7] = compound: Cn1cc(-c2ccc3c(c2)CCN3C(=O)Cc2cccc(C(F)(F)F)c2)c2c(N)ncnc21
Outline: as §1

[8] = compound: Cn1cc(-c2ccc3nnc(C(F)(F)c4ccc5ncccc5c4)n3n2)cn1
Outline: as §1

[9] = compound: Cn1cncc1[C@@](N)(c1ccc(Cl)cc1)c1ccc2c(c1)c(-c1cccc(Cl)c1)cc(=O)n2C [tipifarnib]
Outline: as §1

[10] = compound: FC(F)(F)c1ccc(/C=C/c2nc(COc3ccc(CCCCn4ccnn4)cc3)co2)cc1 [mubritinib]
Outline: as §1

[11] = compound: NC(=O)Nc1cc(-c2cccc(F)c2)sc1C(=O)N[C@H]1CCCNC1
Outline: as §1

[12] = compound: NC(=O)c1cnc(N[C@@H]2CCCC[C@@H]2N)nc1Nc1cccc(-n2nccn2)c1
Outline: as §1

[13] = compound: NC1(c2ccc(-c3nc4ccn5c(=O)[nH]nc5c4cc3-c3ccccc3)cc2)CCC1
Outline: as §1

[14] = compound: NCC(=O)Nc1ccc(-n2nc(C(F)(F)F)cc2-c2ccc3c(ccc4ccccc43)c2)cc1
Outline: as §1

[15] = compound: Nc1ccccc1NC(=O)c1ccc(CNC(=O)OCc2cccnc2)cc1 [entinostat]
Outline: as §1

[16] = compound: O=C(CCCCCCC(=O)Nc1ccccc1)NO [vorinostat]
Outline: as §1

[17] = compound: O=C(CCCCCCNC(=O)c1cnc(N(c2ccccc2)c2ccccc2Cl)nc1)NO [citarinostat]
Outline: as §1

[18] = compound: O=C(O)c1ccc2c(c1)nc(Nc1cccc(Cl)c1)c1ccncc12 [silmitasertib]
Outline: as §1

[19] = compound: O=C1NC(=O)C(c2cnc3ccccn23)=C1c1cn2c3c(cc(F)cc13)CN(C(=O)N1CCCCC1)CC2
Outline: as §1

[20] = compound: c1cc(OCCN2CCCCC2)cc(-c2n[nH]c3ccc(-c4nnc[nH]4)cc23)c1
Outline: as §1

Measured: log2 fold change

UBR7 (UniProt Q8N806)
inactive: [1] -0.086 | [2] -0.017 | [3] -0.005 | [4] -0.044 | [5] -0.057 | [6] -0.009 | [7] 0.021 | [8] 0.101 | [9] -0.013 | [10] -0.005 | [11] -0.021 | [12] -0.067 | [13] 0.003 | [14] -0.018 | [15] -0.02 | [16] 0.022 | [17] 0.014 | [18] 0.039 | [19] -0.06 | [20] -0.025

VAT1 (UniProt Q99536)
inactive: [1] 0.045 | [2] -0.001 | [3] 0.043 | [4] 0.002 | [5] 0.009 | [6] 0.011 | [7] 0.073 | [8] -0.006 | [9] -0.056 | [10] 0.094 | [11] 0.003 | [12] 0.024 | [13] 0.011 | [14] 0.073 | [15] -0.017 | [16] 0.005 | [17] 0.034 | [18] -0.017 | [19] -0.014 | [20] -0.008

UROS (UniProt P10746)
inactive: [1] -0.022 | [2] 0.026 | [3] -0.022 | [4] -0.125 | [5] -0.085 | [6] 0.002 | [7] 0.099 | [8] -0.054 | [9] -0.064 | [10] 0.015 | [11] -0.008 | [12] 0.025 | [13] -0.027 | [14] -0.05 | [15] 0.023 | [16] 0.053 | [17] 0.06 | [18] -0.015 | [19] -0.033 | [20] -0.003

UCK2 (UniProt Q9BZX2)
inactive: [1] -0.057 | [2] 0.04 | [3] -0.065 | [4] 0 | [5] -0.034 | [6] 0.005 | [7] 0.063 | [8] 0.163 | [9] -0.02 | [10] -0.008 | [11] 0.021 | [12] -0.023 | [13] -0.067 | [14] -0.053 | [15] -0.019 | [16] 0.025 | [17] 0.031 | [18] -0.006 | [19] -0.039 | [20] -0.054

UQCRC2 (UniProt P22695)
inactive: [1] -0.015 | [2] 0.007 | [3] 0.008 | [4] 0.023 | [5] 0.022 | [6] -0.011 | [7] 0.035 | [8] 0.002 | [9] -0.015 | [10] 0.016 | [11] 0.044 | [12] 0.013 | [13] 0.017 | [14] 0.051 | [15] -0.021 | [16] 0 | [17] 0.018 | [18] -0.028 | [19] -0.001 | [20] 0.009

UPRT (UniProt Q96BW1)
inactive: [1] 0.08 | [2] 0.009 | [3] -0.141 | [4] -0.011 | [5] -0.054 | [6] -0.007 | [7] 0.168 | [8] 0.04 | [9] -0.067 | [10] -0.027 | [11] -0.021 | [12] -0.079 | [13] -0.023 | [14] 0.037 | [15] -0.043 | [16] -0.053 | [17] -0.101 | [18] -0.018 | [19] 0.007 | [20] -0.005

UBL5 (UniProt Q9BZL1)
inactive: [1] -0.013 | [2] 0.015 | [3] 0.052 | [4] -0.025 | [5] -0.067 | [6] 0.021 | [7] -0.081 | [8] -0.13 | [9] 0.093 | [10] 0.045 | [11] -0.035 | [12] -0.018 | [13] -0.047 | [14] -0.054 | [15] 0.039 | [16] 0.033 | [17] 0.017 | [18] 0.061 | [19] -0.05 | [20] -0.044

UCKL1 (UniProt Q9NWZ5)
inactive: [1] 0.083 | [2] 0.067 | [3] 0.127 | [4] -0.006 | [5] -0.015 | [6] -0.027 | [7] 0.013 | [8] 0.036 | [9] -0.011 | [10] -0.021 | [11] -0.033 | [12] -0.035 | [13] -0.05 | [14] -0.037 | [15] 0.026 | [16] 0.013 | [17] 0.003 | [18] 0.094 | [19] -0.025 | [20] -0.14

VANGL1 (UniProt Q8TAA9)
inactive: [1] 0.077 | [2] 0.03 | [3] 0 | [4] -0.263 | [5] 0.004 | [6] 0.006 | [7] -0.008 | [8] -0.108 | [9] 0.016 | [10] 0.01 | [11] -0.138 | [12] 0.058 | [13] 0.027 | [14] -0.088 | [15] -0.066 | [16] -0.095 | [17] -0.1 | [18] 0.099 | [19] 0.118 | [20] -0.452

UBE4B isoform 4 (UniProt O95155)
inactive: [1] -0.003 | [2] 0.053 | [3] -0.051 | [4] -0.011 | [5] -0.069 | [6] -0.024 | [7] -0.019 | [8] -0.011 | [9] -0.024 | [10] 0.032 | [11] 0.005 | [12] -0.055 | [13] -0.113 | [14] -0.056 | [15] 0.019 | [16] 0.023 | [17] 0.02 | [18] 0.042 | [19] -0.082 | [20] -0.014

UFC1 (UniProt Q9Y3C8)
inactive: [1] -0.004 | [2] 0.008 | [3] 0.026 | [4] 0.018 | [5] 0.026 | [6] -0.004 | [7] 0.04 | [8] 0.02 | [9] -0.007 | [10] -0.029 | [11] -0.005 | [12] 0.029 | [13] 0.048 | [14] 0.065 | [15] -0.015 | [16] -0.049 | [17] -0.023 | [18] -0.022 | [19] -0.057 | [20] 0.132

UROD (UniProt P06132)
inactive: [1] -0.049 | [2] 0 | [3] 0.052 | [4] -0.016 | [5] 0.038 | [6] 0.006 | [7] 0.054 | [8] -0.038 | [9] -0.049 | [10] -0.009 | [11] -0.01 | [12] 0.052 | [13] 0.04 | [14] 0.05 | [15] -0.061 | [16] -0.021 | [17] -0.013 | [18] -0.044 | [19] 0.009 | [20] -0.006

USP3 (UniProt Q9Y6I4)
inactive: [1] 0.011 | [2] -0.009 | [3] -0.125 | [4] -0.198 | [5] -0.185 | [6] -0.026 | [7] 0.027 | [8] -0.023 | [9] -0.226 | [10] 0.045 | [11] 0.039 | [12] 0.016 | [13] -0.218 | [14] -0.115 | [15] -0.037 | [16] 0.092 | [17] 0.102 | [18] 0.019 | [19] -0.066 | [20] -0.014

VASP (UniProt P50552)
inactive: [1] 0.048 | [2] 0.055 | [3] -0.146 | [4] -0.119 | [5] -0.285 | [6] 0.056 | [7] 0.022 | [8] 0.015 | [9] -0.106 | [10] 0.101 | [11] -0.07 | [12] -0.15 | [13] -0.026 | [14] -0.06 | [15] 0.065 | [16] 0.039 | [17] 0.077 | [18] 0.119 | [19] 0.066 | [20] -0.068

USP34 (UniProt Q70CQ2)
inactive: [1] -0.004 | [2] -0.002 | [3] -0.054 | [4] 0.034 | [5] -0.141 | [6] -0.223 | [7] -0.012 | [8] 0.033 | [9] -0.134 | [10] -0.049 | [11] 0.012 | [12] -0.08 | [13] -0.131 | [14] -0.02 | [15] 0.024 | [16] 0.118 | [17] 0.123 | [18] 0.045 | [19] -0.008 | [20] -0.074

Reprinted from the results shown (2 entries):
UFC1 (UniProt Q9Y3C8)
inactive: [1] -0.004 | [2] 0.008 | [3] 0.026 | [4] 0.018 | [5] 0.026 | [6] -0.004 | [7] 0.04 | [8] 0.02 | [9] -0.007 | [10] -0.029 | [11] -0.005 | [12] 0.029 | [13] 0.048 | [14] 0.065 | [15] -0.015 | [16] -0.049 | [17] -0.023 | [18] -0.022 | [19] -0.057 | [20] 0.132

UROD (UniProt P06132)
inactive: [1] -0.049 | [2] 0 | [3] 0.052 | [4] -0.016 | [5] 0.038 | [6] 0.006 | [7] 0.054 | [8] -0.038 | [9] -0.049 | [10] -0.009 | [11] -0.01 | [12] 0.052 | [13] 0.04 | [14] 0.05 | [15] -0.061 | [16] -0.021 | [17] -0.013 | [18] -0.044 | [19] 0.009 | [20] -0.006

Further results follow:

UBQLN1 (UniProt Q9UMX0)
inactive: [1] -0.003 | [2] -0.013 | [3] -0.014 | [4] 0.019 | [5] 0.003 | [6] -0.009 | [7] 0.078 | [8] 0.007 | [9] 0.009 | [10] 0.027 | [11] 0.026 | [12] 0.044 | [13] 0.002 | [14] -0.023 | [15] 0.135 | [16] 0.008 | [17] -0.032 | [18] -0.006 | [19] 0.048 | [20] -0.03
